Results: PubChem BioAssay AID743255 (National Center for Advancing Translational Sciences (NCATS), 2014)
In all, about 390,000 compounds went through this assay and about 910 (0.23%) were called active. Inconclusive results, whose numbers are uncertain, are shown with a selection of clear calls. Calls follow the shape of the dose curve; as a rule, active = well fitted inhibition curve with a large enough effect; inconclusive = small, poorly fitted or top-dose-only effect; inactive = no such curve, though single readings can be large or run the other way. Potencies beside an inconclusive call are fits to weak or partial responses and may not hold up.

Protein sequences, listed by entry. Tags and fused reporters are not part of them. Lines headed by an entry give the natural chain unless they say otherwise; changes in a name come on top.
UniProt O94782: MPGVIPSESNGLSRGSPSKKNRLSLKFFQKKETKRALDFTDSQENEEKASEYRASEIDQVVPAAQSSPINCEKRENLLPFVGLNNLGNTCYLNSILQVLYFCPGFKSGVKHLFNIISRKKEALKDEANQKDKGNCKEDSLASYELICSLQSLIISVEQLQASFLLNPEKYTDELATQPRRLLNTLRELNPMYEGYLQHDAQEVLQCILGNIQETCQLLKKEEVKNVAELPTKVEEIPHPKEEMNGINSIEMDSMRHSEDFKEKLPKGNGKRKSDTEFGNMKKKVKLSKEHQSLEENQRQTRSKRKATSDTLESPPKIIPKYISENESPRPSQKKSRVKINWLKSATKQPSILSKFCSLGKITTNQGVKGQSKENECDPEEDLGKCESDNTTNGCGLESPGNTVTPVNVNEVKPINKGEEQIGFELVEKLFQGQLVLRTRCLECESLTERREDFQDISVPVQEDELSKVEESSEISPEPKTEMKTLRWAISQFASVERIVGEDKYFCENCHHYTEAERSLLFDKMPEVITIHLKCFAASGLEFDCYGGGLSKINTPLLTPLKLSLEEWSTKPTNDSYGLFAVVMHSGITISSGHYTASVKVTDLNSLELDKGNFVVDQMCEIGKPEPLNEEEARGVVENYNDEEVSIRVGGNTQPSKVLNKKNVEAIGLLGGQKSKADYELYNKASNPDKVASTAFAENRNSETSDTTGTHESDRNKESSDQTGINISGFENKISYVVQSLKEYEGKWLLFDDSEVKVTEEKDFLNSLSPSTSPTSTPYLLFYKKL

Target: Ubiquitin carboxyl-terminal hydrolase 1 (Homo sapiens) (UniProt O94782)
Test: Inhibitors of USP1/UAF1: Primary Screen; also: nearly all actives have a fitted effect of over 60% in size
Details: recombinant USP1/UAF1, Ub-Rhodamine cleavage fluorescence; activity change, negative = inhibition: at 57.1 µM (top of the series)
How it was run: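 USP1/UAF1 complex at 1 nM was preincubated with compound for 15 min at room temperature, then Ub-Rho substrate (150nM final) was added. Fluorescence (480/540 nm) was read kinetically, 6 reads every 60 seconds.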
% is scaled to controls: 0 for no effect and ±100 for the full control effect; potency is read from the fitted curve at half-maximal effect.

Potency, inconclusive:
Cc1cccc(C)c1-n1ncc(C(=O)Nc2ccc3c(c2)OCCO3)c1C1CCN(C(=O)OC(C)(C)C)CC1 44.7 µM [inhibitor, partial curve, poor fit], CCC(COC(=O)c1ccccc1)Oc1cc(NCc2ccccc2)c2ncn(C(C)C)c2c1 (stereo unspecified) 5.62 µM [inhibitor, partial curve], COc1ccc2c(c1)c([C@@H]1[C@H](C)[C@H]3CCCC[C@H]3CN1S(=O)(=O)c1ccc(C)cc1)cn2C 100 µM [inhibitor, partial curve, poor fit], COc1ccc(-c2cc(C)no2)cc1S(=O)(=O)NCc1ccc(OC(C)C)cc1 7.94 µM [inhibitor, full curve, poor fit], Cc1cccc(Nc2nnc(-n3nc(C)cc3C)c3ccccc23)c1 1.26 µM [inhibitor, full curve], Cc1cc(C)n(C(C)CNS(=O)(=O)c2ccccc2)n1 (stereo unspecified) 0.282 µM [inhibitor, full curve, poor fit], O=C1NCC(Nc2ccccc2Cl)C(=O)N1 (stereo unspecified) 0.282 µM [inhibitor, full curve, poor fit], C/C(=N\NC(=O)c1cc2ccccc2cc1O)c1cc2ccccc2o1 28.2 µM [inhibitor, partial curve], CCc1nnc(NC(=O)CSc2nc(C3CCCCC3)nc3ccccc23)s1 0.708 µM [inhibitor, full curve, poor fit], CCOC(=O)C1=CN(Cc2ccco2)S(=O)(=O)N(C)C1CC (stereo unspecified) 14.1 µM [inhibitor, partial curve], CCOc1ccccc1NC(=O)N1CCCC1C(=O)NCc1cccs1 (stereo unspecified) 1 µM [inhibitor, full curve, poor fit], O=C(NC1CC(=O)N(c2ccccc2)C1)C1CCCCC1 (stereo unspecified) 15.8 µM [inhibitor, partial curve, poor fit], CCCNC(=O)c1ccc2c(=O)c(O)c(-c3ccc(F)cc3)[nH]c2c1 126 µM [inhibitor, partial curve, poor fit], Cc1cc(C)cc(NC(=O)CSc2nccn2-c2ccccc2)c1 4.47 µM [inhibitor, full curve, poor fit], COc1cc(C[C@H](C)[C@H](C)Cc2ccc3c(c2)OCO3)ccc1O 44.7 µM [inhibitor, partial curve, poor fit], CCN1CCN(C(c2ccc(OC)cc2)c2c(O)cc(C)n(CCOC)c2=O)CC1 (stereo unspecified) 44.7 µM [inhibitor, partial curve, poor fit], Cc1nc(SCC(=O)Nc2cccnc2Cl)nc(C)c1C 8.91 µM [inhibitor, single point], CCOC(=O)Cc1c(C)nc(SC)[nH]c1=O 5.62 µM [inhibitor, partial curve], COc1ccc2c(=O)c(-c3cnn(-c4ccccc4)c3)c(C)oc2c1 0.562 µM [inhibitor, full curve, poor fit], CCC1=NN(C(=O)c2ccccc2O)C(O)(c2ccccc2)C1 (stereo unspecified) 44.7 µM [inhibitor, partial curve, poor fit], O=C(Nc1nnc(-c2cccs2)o1)c1cccc(Oc2ccccc2)c1 35.5 µM [inhibitor, partial curve], COc1ccc(NC(=O)Cn2ccc3c(OC)cccc3c2=O)cc1 0.355 µM [inhibitor, full curve, poor fit], COc1ccc(-c2ccc3c(N)c(C(=O)NC(C)C)sc3n2)cc1OC 5.62 µM [inhibitor, partial curve], CCCc1cc(-c2ccc3c(c2)COc2c4ccccc4nn2-3)on1 10 µM [inhibitor, partial curve], COc1ccc(-n2sc3ccc(F)cc3c2=O)cc1 15.8 µM [inhibitor, partial curve], CCC(=O)c1cn(CC(=O)Nc2ccccc2F)c2ccccc12 3.55 µM [inhibitor, partial curve], COc1cc2c(O)c3c(c(-c4ccc5c(c4)OCO5)c2cc1OC)C(=O)OC3 0.631 µM [inhibitor, full curve, poor fit], CCCCCCCCCCOC(=O)Cn1c(COc2ccccc2OC)[n+](C)c2ccccc21 44.7 µM [inhibitor, partial curve], c1ccc(CN2CCOCCOCCOCCOCC2)cc1 0.251 µM [inhibitor, full curve, poor fit], CCCCCCC[C@@H](C/C=C/CCC(=O)N(C)C/C(=C/Cl)C/C(=C\C(=O)N1CC(OC)=CC1=O)OC)OC 39.8 µM [inhibitor, partial curve]

Activity change, negative = inhibition, inconclusive:
COc1ccccc1NC(=O)C(C)Nc1ccc(C)c(Cl)c1 (stereo unspecified) -32.5% [inhibitor]

Activity change, negative = inhibition, inactive:
COc1ccc(OC)c(C2CC(=O)c3c([nH]c(C(=O)OC4CCC(C)CC4)c3C)C2)c1 (stereo unspecified) -10.3%, O=C(C[n+]1cc(-c2ccccc2)n2c1CCC2)Nc1nc(-c2ccc(F)cc2)cs1 -4.66%, COc1cccc(C(=O)NCC(=O)NCc2cc(=O)n(C)c(=O)n2C)c1 -14.5%, O=C(CCNC(=O)N1CCn2c1nc1ccccc12)NCc1ccccc1 -24.4%, CCc1ccc(S(=O)(=O)Nc2c(C)n(C)n(-c3ccccc3)c2=O)cc1 -17.1%, CN(C)CCCN(C(=O)CCSc1ccccc1)c1nc2cc3c(cc2s1)OCO3 -5.04%, Cc1ccc(-n2nc3c(=O)n(CC(=O)Nc4ccccc4F)nc(C)c3c2C)c(C)c1 17.6%, COc1cc2cc(CCCOC(=O)CCCC(=O)O)oc(=O)c2cc1OC 9.77%, COc1ccc(C(CNC(=O)COc2ccc(Cl)c(C)c2)N2CCOCC2)cc1 (stereo unspecified) -24%, CCCCOC(=O)c1c(C)oc2ccc(NS(=O)(=O)c3ccc4c5c(cccc35)C(=O)N4)cc12 -8.82%
